Data from article PMC8033514.
No constants are given. Whether binding was seen depends on the method and setting. Binding seen in cells or lysates may run through a third protein. Some binding calls cover weakened binding; strength is not graded here.

T1: LDB2, endogenous in mouse brain (mouse (endogenous in brain)) (UniProt O55203)
T1 sequence: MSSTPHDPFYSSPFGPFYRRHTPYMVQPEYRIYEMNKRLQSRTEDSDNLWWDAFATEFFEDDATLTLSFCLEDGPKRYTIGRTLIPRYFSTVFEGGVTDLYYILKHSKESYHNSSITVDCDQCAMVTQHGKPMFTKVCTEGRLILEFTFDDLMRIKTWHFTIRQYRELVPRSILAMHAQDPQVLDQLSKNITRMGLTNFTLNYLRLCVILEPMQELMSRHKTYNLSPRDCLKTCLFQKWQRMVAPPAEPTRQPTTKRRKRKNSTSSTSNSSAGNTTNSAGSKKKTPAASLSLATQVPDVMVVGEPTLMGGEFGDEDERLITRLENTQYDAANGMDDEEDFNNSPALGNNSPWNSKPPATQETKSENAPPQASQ


Target: T1, LDB2, endogenous in mouse brain (mouse (endogenous in brain))
Assay: co-IP; endogenous proteins in adult mouse brain lysate; immunocomplexes with an antibody against LDB2, LMO3 or SSBP3 or a control antibody; Western blot with anti-LDB2 or anti-SSBP3

| Binder | binding |
| --- | --- |
| SSBP3, endogenous in mouse brain (protein, UniProt Q9D032 1-388) MFAKGKGSAVPSDGQAREKLALYVYEYLLHVGAQKSAQTFLSEIRWEKNITLGEPPGFLHSWWCVFWDLYCAAPERRDTCEHSSEAKAFHDYSAAAAPSPVLGNIPPNDGMPGGPIPPGFFQGPPGSQPSPHAQPPPHNPSSMMGPHSQPFMSPRYAGGPRPPIRMGNQPPGGVPGTQPLLPNSMDPTRQQGHPNMGGSMQRMNPPRGMGPMGPGPQNYGSGMRPPPNSLGPAMPGINMGPGAGRPWPNPNSANSIPYSSSSPGTYVGPPGGGGPPGTPIMPSPADSTNSSDNIYTMINPVPPGGSRSNFPMGPGSDGPMGGMGGMEPHHMNGSLGSGDIDGLPKNSPNNISGISNPPGTPRDDGELGGNFLHSFQNDNYSPSMTMSV | binds |
| LMO3, endogenous in mouse brain (protein, UniProt Q8BZL8 1-145) MLSVQPDTKPKGCAGCNRKIKDRYLLKALDKYWHEDCLKCACCDCRLGEVGSTLYTKANLILCRRDYLRLFGVTGNCAACSKLIPAFEMVMRAKDNVYHLDCFACQLCNQRFCVGDKFFLKNNMILCQTDYEEGLMKEGYAPQVR | binds |
